# Experimental data as given in PubChem BioAssay AID493014 (National Center for Advancing Translational Sciences (NCATS), 2011).
# The other results are listed elsewhere or left out. These are further read-outs of the screen, such as a control signal, another cell line or another target. No call is given for them. Compounds called inactive in the main read-out are mostly missing here. Words in brackets tell the shape of the fitted curve; partial curves, single points and poor fits give uncertain potencies.
# Assay: qHTS Assay to Find Inhibitors of Chronic Active B-Cell Receptor Signaling
# Details: ABC-DLBCL IkBa-CBG/CBR reporter, luminescence ratio (green luciferase fused to IkBa over red control in TMD8 lymphoma cells), 4 h
# Procedure, shortened: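 Cell line TMD8 (human ABC DLBCL), stably expressing tet-inducible CBG68-IkBa fusion and CBR; IMDM/0.5% FBS; cpd up to 46 uM; dox induction, 4 h, 37C/5% CO2; dual luminescence; green/red ratio; MG132 control.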
# [1] = measured here: IkBa-CBG green luminescence
# [2] = measured here: CBR red luminescence, cell number
SMILES,AC50 [1],AC50 [2]
Cc1ccc2cc(NC(=O)Cc3ccccc3)ccc2n1,"1.26 µM [rising, full curve, poor fit]",
Cc1cccc(C(=O)NNC(=O)c2ccccc2)c1,,"11.6 µM [falling, partial curve]"
O=C(Nc1ncn[nH]1)c1ccccc1O,,"35.5 µM [falling, single point]"
COc1cccc(-c2cc3nc(-c4ccccc4)cc(=O)n3[nH]2)c1,"12.6 µM [falling, single point]","7.08 µM [falling, partial curve]"
COc1cccc(-c2cc(C(=O)NC3CCCC3)no2)c1,,"7.31 µM [falling, partial curve]"
O=S(=O)(c1ccc(NC(=S)Nc2ccc(OC(F)F)cc2)cc1)N1CCOCC1,,"29.1 µM [rising, single point]"
COc1ccc2nc(NC(=O)c3ccc(NC(=O)C4CCCO4)cc3)sc2c1 (stereo not drawn),,"3.98 µM [falling, partial curve, poor fit]"
COCCn1cnc2c(c1=O)c1nc3ccccc3nc1n2/N=C/c1ccco1,,"22.4 µM [falling, partial curve, poor fit]"
Cc1ccccc1NC(=O)Cn1nc(C)c2ccccc2c1=O,,"31.6 µM [rising, single point]"
CCc1ccc(O)c(N=Cc2ccccc2O)c1,,"29.1 µM [rising, single point]"
CCOC(=O)c1sc(-c2ccccc2)nc1C,,"0.501 µM [rising, full curve, poor fit]"
O=C(/C=C/c1c(F)cccc1Cl)Nc1ccncc1,,"6.51 µM [rising, single point]"
Cc1ccc(/C=C/C(=O)N2CCN(c3ncccn3)CC2)o1,,"29.1 µM [falling, single point]"
Cc1ccsc1C(=O)OCc1csc(-c2ccccc2)n1,,"20.6 µM [falling, partial curve]"
CSCCC(NS(=O)(=O)c1ccc2c(c1)oc(=O)n2C)C(=O)NCc1ccc(Cl)cc1 (stereo not drawn),,"11.2 µM [rising, partial curve]"
CC(=O)Nc1ccc(S(=O)(=O)NCCC(=O)OCC(=O)NCc2ccccc2)cc1,,"20.6 µM [rising, single point]"
Nc1scn[n+]1Cc1cccc2cccnc12,,"12.6 µM [falling, partial curve, poor fit]"
COc1ccc(-c2nc(N)ncc2-c2csc(C)n2)c(O)c1,,"11.2 µM [rising, partial curve, poor fit]"
CC(=O)c1ccc(NC(=O)CN2C(=O)/C(=C/C(C)=C/c3ccccc3)SC2=S)cc1,,"3.66 µM [rising, partial curve]"
Cc1cccc(NC(=O)C2Cc3ccccc3O/C2=N\O)c1 (stereo not drawn),,"0.1 µM [rising, full curve, poor fit]"
C=CCOc1c(Br)cc(CNc2ccc(NC(=O)CCC)cc2)cc1OCC,,"0.447 µM [rising, partial curve, poor fit]"
CCOC(=O)c1c(-c2ccccc2)oc2ccc(OCC(O)CNCCN(C)C)cc12 (stereo not drawn),,"5.01 µM [falling, partial curve]"

# Four entries from above, set out differently:
SMILES	AC50 [1]	AC50 [2]
CCc1ccc(O)c(N=Cc2ccccc2O)c1		29.1 µM [rising, single point]
O=C(/C=C/c1c(F)cccc1Cl)Nc1ccncc1		6.51 µM [rising, single point]
Nc1scn[n+]1Cc1cccc2cccnc12		12.6 µM [falling, partial curve, poor fit]
COc1ccc(-c2nc(N)ncc2-c2csc(C)n2)c(O)c1		11.2 µM [rising, partial curve, poor fit]

# Following part.

SMILES,AC50 [1],AC50 [2]
CSc1nc2ccc(NC(=O)c3ccccn3)cc2s1,,"15.8 µM [falling, partial curve, poor fit]"
Cc1ccc(-c2nn(-c3ccccc3)cc2/C=N/n2c(-c3ccncc3)n[nH]c2=S)cc1,,"1 µM [rising, full curve, poor fit]"
NC(=S)N=Nc1c(O)n(CCCl)c2ccc(Cl)cc12,"3.98 µM [falling, single point]","17.8 µM [falling, single point]"
CCOC(=O)N1CCN(C(=O)C(C)N(c2ccc(Oc3ccccc3)cc2)S(C)(=O)=O)CC1 (stereo not drawn),,"3.66 µM [rising, partial curve, poor fit]"
O=C(CSc1ccccc1)NNC(=O)c1ccccc1O,,"22.4 µM [rising, partial curve, poor fit]"
Cc1nc(S(=O)(=O)c2ccc(Cl)cc2)c(NCc2ccccc2)o1,,"25.9 µM [rising, single point]"
Cc1ccc(N(CC(=O)N2CCc3ccccc32)C2=NC(=O)CS2)cc1,,"12.6 µM [rising, partial curve, poor fit]"
O=C(CC1C(=O)NCCN1CC1CCCCC1)NCc1ccc(F)cc1 (stereo not drawn),,"6.31 µM [rising, single point]"
CC1CCCN(C(=O)COc2ccc(Nc3ccccc3)cc2)C1 (stereo not drawn),,"0.501 µM [rising, full curve, poor fit]"
Cc1ccc(S(=O)(=O)N/N=C\c2cc([N+](=O)[O-])ccc2Cl)cc1,,"29.1 µM [falling, single point]"
COc1ccc(/C=C2\SC(=O)N(CCC(=O)Nc3ccc(S(=O)(=O)Nc4nccs4)cc3)C2=O)cc1,,"10.3 µM [falling, partial curve]"
CSc1nc2ccc(NS(=O)(=O)c3cccc(Cl)c3Cl)cc2s1,,"25.9 µM [falling, single point]"
COc1ccccc1-c1cc(C2CC2)nc(N)c1C#N,,"35.5 µM [rising, single point]"
CCCC(O)(c1ccc(CC)cc1)C(CN1CCOCC1)c1ccccc1 (stereo not drawn),,"17.8 µM [falling, partial curve]"
CCOC(=O)C1=C(C)N(CC)C(=S)NC1c1ccccc1OC(F)F (stereo not drawn),,"35.5 µM [falling, single point]"
N#C/C(=C\c1cccc(NC(=O)c2ccccc2Cl)c1)C(=O)NCCc1ccccc1,"25.9 µM [falling, single point]",
CCC(C)C(=O)Nc1nc2ccc(OC)cc2s1 (stereo not drawn),,"22.4 µM [falling, single point]"
Cc1ccc(-c2cc(C(=O)Nc3cc(C)ccc3O)no2)cc1,,"0.891 µM [falling, full curve, poor fit]"
CCc1nc(NCCN2CCOCC2)c2oc3ccccc3c2n1,,"12.6 µM [falling, single point]"
CCOC(=O)c1cc(C(=O)c2cc(F)ccc2O)coc1=N,,"31.6 µM [falling, single point]"
O=C1/C(=C/c2ccc(F)cc2)SC(=S)N1Nc1ncc(C(F)(F)F)cc1Cl,,"11.6 µM [falling, partial curve]"
COC(=O)c1ccc(COc2cc(C)ccc2C)o1,,"3.98 µM [rising, partial curve, poor fit]"

SMILES,AC50 [1],AC50 [2]
Clc1ccc(-c2nnc(SCc3ccon3)o2)c(Cl)c1,,"2.06 µM [rising, partial curve, poor fit]"
S=C(NCc1cccs1)Nc1ccc(Br)cc1Cl,,"2.51 µM [rising, partial curve, poor fit]"
Cc1cc(C)n(-c2nc(-n3nc(C)cc3C)c3c4c(sc3n2)COC(C)(C)C4)n1,,"35.5 µM [rising, single point]"
CC(=O)Nc1cccc(C(=O)OCC(=O)NCc2cc(C)c(O)c(C)c2)c1,,"25.9 µM [rising, partial curve, poor fit]"
CCc1ccc(NC(=O)c2cnn3ccccc23)cc1,,"16.4 µM [falling, single point]"
O=C(CS(=O)(=O)c1cn(CC(=O)N2CCCC2)c2ccccc12)Nc1ccccc1F,,"11.2 µM [falling, partial curve, poor fit]"
Cc1cccc(-c2nc(Nc3ccc(O)cc3)c3ccccc3n2)c1,,"14.1 µM [falling, partial curve, poor fit]"
CS(=O)(=O)N(CC(=O)NCCSc1ccccn1)c1cccc2ccccc12,,"6.51 µM [rising, full curve, poor fit]"
O=C(NNC(=O)c1nn(-c2ccc(F)cc2)ccc1=O)c1ccc(C(F)(F)F)cc1,,"3.98 µM [rising, partial curve, poor fit]"
Cc1ccc(C(=O)N2CCN(c3ccc(NC(=O)c4cccnc4)cc3)CC2)cc1,,"20.6 µM [falling, single point]"
CCOc1ccc(OCc2ccc(C(=O)N3CCCC3)o2)cc1,,"23.1 µM [falling, single point]"
COc1ccccc1C(=O)NNC(=O)c1cccc(F)c1,,"5.17 µM [falling, partial curve]"
COC(=O)c1cscc1NC(C)=O,,"6.31 µM [falling, single point]"
O=c1oc2ccccc2c2[nH]ccc12,,"2.82 µM [falling, partial curve, poor fit]"
O=[N+]([O-])c1ccc(/C=N/Nc2nc(N3CCCCC3)nc(N3CCCCC3)n2)o1,,"29.1 µM [rising, single point]"
COc1ccc(OCC(=O)NCc2ccc3c(c2)CCN3C(=O)c2cccc(C)c2)cc1,"35.5 µM [falling, single point]","0.447 µM [falling, full curve, poor fit]"
Oc1ccc(C(c2nnnn2C2CCCC2)N2CCc3ccccc3C2)cc1 (stereo not drawn),,"11.2 µM [falling, partial curve, poor fit]"
CCc1ccc(NC(=O)COC(=O)CN2C(=O)COc3ccccc32)cc1,,"20.6 µM [rising, single point]"
CC(C)(C)C(=O)C(Cc1ccccc1Cl)n1cncn1 (stereo not drawn),,"32.6 µM [falling, partial curve, poor fit]"
COC(=O)c1c(N)n(-c2ccc(NC(C)=O)cc2)c2nc3ccccc3nc12,,"2.91 µM [rising, single point]"
COc1ccccc1/C=C/c1ccc2cccc(O)c2n1,,"35.5 µM [rising, single point]"
